Test results: patent publication US20200239541A1
These are yes or no findings as the source states them, for the method shown. Some binding calls cover weakened binding; strength is not graded here. For part of these data: Sequences can lack the tags named with a protein.

Amino acid sequences for entries named in this document (tags omitted). Residues count along the entry.
UniProt P26718, residues 78-216: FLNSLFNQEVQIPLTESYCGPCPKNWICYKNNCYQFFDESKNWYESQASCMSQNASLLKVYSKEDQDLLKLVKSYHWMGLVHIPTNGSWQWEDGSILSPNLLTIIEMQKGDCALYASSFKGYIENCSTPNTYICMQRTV

T1: murine NKG2D-Fc (murine) (UniProt O54709)
T1 sequence (looked up): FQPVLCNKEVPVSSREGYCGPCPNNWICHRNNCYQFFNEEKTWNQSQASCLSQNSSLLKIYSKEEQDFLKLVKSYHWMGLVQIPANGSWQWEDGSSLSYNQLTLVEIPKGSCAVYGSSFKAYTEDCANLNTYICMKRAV


The binders below were run against biotinylated human NKG2D (Example 1) (human) (UniProt P26718) (assay: BLI (Octet)).

binding	Binder
binds	WED-MICA α1-α2 domain (N69W, K152E, K154D) (ligand) EPHSLRYNLTVLSWDGSVQSGFLTEVHLDGQPFLRCDRQKCRAKPQGQWAEDVLGNKTWDRETRDLTGWGKDLRMTLAHIKDQKEGLHSLQEIRVCEIHEDNSTRSSQHFYYDGELFLSQNLETKEWTMPQSSRAQTLAMNVRNFLKEDAMETDTHYHAMHADCLQELRRYLKSGVVLRRTVPPMVQVTRSEASGGSGDRVTITCRASQDVSTAVAWYQQKPGKAPKLLIYSASFLYSGVPSRFSGSGSGTDFTLTISSLQPEDFATYYCQQSYTTPPTFGQGTKVEIKGGSSRSSSSGGGGSGGGGEVQLVESGGGLVQPGGSLRLSCAASGFTFTSTGISWVRQAPGKGLEWVGRIYPTNGSTNYADSVKGRFTISADTSKNTAYLQMNSLRAEDTAVYYCARTYGIYDLYVDYTEYVMDYWGQGTLVTVSSGGSSRSSSSGGGGSGGGGDIQMTQSPSSLSASGGSGQITVTCRASGFYPWNITLSWRQDGVSLSHDTQQWGDVLPDGQGTYQTWVATRISQGEEQRFTCYMEHSGQHSTHPVPSGKGSHHHHHH

Each binder was assayed against T1, murine NKG2D-Fc (murine) (assay: competition ELISA with murine NKG2D-Fc).

Binder	binding
α1-α2 variant 18 (His-tagged, with attached heterologous polypeptide) (ligand) EPHSLRYNLTVLSWDGSVQPGFLTEVHLDGQPFLRCDRQKCRAKPQGQWAEDVLGNKTWDRETRDLTLWGKDLRMTLAHIKDQKEGLHSLQEIRVCEIHEDNSTRSSQHFYYDGELFLSQNLETLEWTMPQSSRAQTLAMNVRNFLKEDAMETDTHYHAMRADCLQELRRYLKSGVVLRRTVPPMVQVTRSEASGGSGDRVTITCRASQDVSTAVAWYQQKPGKAPKLLIYSASFLYSGVPSRFSGSGSGTDFTLTISSLQPEDFATYYCQQSYTTPPTFGQGTKVEIKGGSSRSSSSGGGGSGGGGEVQLVESGGGLVQPGGSLRLSCAASGFTFTSTGISWVRQAPGKGLEWVGRIYPTNGSTNYADSVKGRFTISADTSKNTAYLQMNSLRAEDTAVYYCARTYGIYDLYVDYTEYVMDYWGQGTLVTVSSGGSSRSSSSGGGGSGGGGDIQMTQSPSSLSASGGSGQITVTCRASGFYPWNITLSWRQDGVSLSHDTQQWGDVLPDGQGTYQTWVATRISQGEEQRFTCYMEHSGQHSTHPVPSGKGSHHHHHH	binds
WED-MICA α1-α2 domain (N69W, K152E, K154D) (ligand) EPHSLRYNLTVLSWDGSVQSGFLTEVHLDGQPFLRCDRQKCRAKPQGQWAEDVLGNKTWDRETRDLTGWGKDLRMTLAHIKDQKEGLHSLQEIRVCEIHEDNSTRSSQHFYYDGELFLSQNLETKEWTMPQSSRAQTLAMNVRNFLKEDAMETDTHYHAMHADCLQELRRYLKSGVVLRRTVPPMVQVTRSEASGGSGDRVTITCRASQDVSTAVAWYQQKPGKAPKLLIYSASFLYSGVPSRFSGSGSGTDFTLTISSLQPEDFATYYCQQSYTTPPTFGQGTKVEIKGGSSRSSSSGGGGSGGGGEVQLVESGGGLVQPGGSLRLSCAASGFTFTSTGISWVRQAPGKGLEWVGRIYPTNGSTNYADSVKGRFTISADTSKNTAYLQMNSLRAEDTAVYYCARTYGIYDLYVDYTEYVMDYWGQGTLVTVSSGGSSRSSSSGGGGSGGGGDIQMTQSPSSLSASGGSGQITVTCRASGFYPWNITLSWRQDGVSLSHDTQQWGDVLPDGQGTYQTWVATRISQGEEQRFTCYMEHSGQHSTHPVPSGKGSHHHHHH	binds
α1-α2 variant 17 (His-tagged, with attached heterologous polypeptide) (ligand) EPHSLRYNLTVLSWDGSVQSGFLTEVHLDGQPFLRCDRQKCRAKPQGQWAEDVLGNKTWDRETRDLTLWGKDLRMTLAHIKDQKEGLHSLQEIRVCEIHEDNSTRSSQHFYYDGELFLSQNLETLEWTMPQSSRAQTLAMNVRNFLKEDAMETDTHYHAMRADCLQELRRYLKSGVVLRRTVPPMVQVTRSEASGGSGDRVTITCRASQDVSTAVAWYQQKPGKAPKLLIYSASFLYSGVPSRFSGSGSGTDFTLTISSLQPEDFATYYCQQSYTTPPTFGQGTKVEIKGGSSRSSSSGGGGSGGGGEVQLVESGGGLVQPGGSLRLSCAASGFTFTSTGISWVRQAPGKGLEWVGRIYPTNGSTNYADSVKGRFTISADTSKNTAYLQMNSLRAEDTAVYYCARTYGIYDLYVDYTEYVMDYWGQGTLVTVSSGGSSRSSSSGGGGSGGGGDIQMTQSPSSLSASGGSGQITVTCRASGFYPWNITLSWRQDGVSLSHDTQQWGDVLPDGQGTYQTWVATRISQGEEQRFTCYMEHSGQHSTHPVPSGKGSHHHHHH	binds

Other lines, results leading:

binding	Binder
binds	α1-α2 variant 15 (His-tagged, with attached heterologous polypeptide) (ligand) EPHSLRYNLTVLSWDGSVQSGFLTEVHLDGQPFLRCDRQKCRAKPQGQWAEDVLGNKTWDRETRDLTGWGKDLRMTLAHIKDQKEGLHSLQEIRVCEIHEDNSTRSSQHFYYDGELFLSQNLETNEWTMPQSSRAQTLAMNVRNFLKEDAMETDTHYHAMRADCLQELRRYLKSGVVLRRTVPPMVQVTRSEASGGSGDRVTITCRASQDVSTAVAWYQQKPGKAPKLLIYSASFLYSGVPSRFSGSGSGTDFTLTISSLQPEDFATYYCQQSYTTPPTFGQGTKVEIKGGSSRSSSSGGGGSGGGGEVQLVESGGGLVQPGGSLRLSCAASGFTFTSTGISWVRQAPGKGLEWVGRIYPTNGSTNYADSVKGRFTISADTSKNTAYLQMNSLRAEDTAVYYCARTYGIYDLYVDYTEYVMDYWGQGTLVTVSSGGSSRSSSSGGGGSGGGGDIQMTQSPSSLSASGGSGQITVTCRASGFYPWNITLSWRQDGVSLSHDTQQWGDVLPDGQGTYQTWVATRISQGEEQRFTCYMEHSGQHSTHPVPSGKGSHHHHHH
binds	α1-α2 variant 16 (His-tagged, with attached heterologous polypeptide) (ligand) EPHSLRYNLTVLSWDGSVQSGFLTEVHLDGQPFLRCDRQKCRAKPQGQWAEDVLGNKTWDRETRDLTGWGKDLRMTLAHIKDQKEGLHSLQEIRVCEIHEDNSTRSSQHFYYDGELFLSQNLETLEWTMPQSSRAQTLAMNVRNFLKEDAMETDTHYHAMRADCLQELRRYLKSGVVLRRTVPPMVQVTRSEASGGSGDRVTITCRASQDVSTAVAWYQQKPGKAPKLLIYSASFLYSGVPSRFSGSGSGTDFTLTISSLQPEDFATYYCQQSYTTPPTFGQGTKVEIKGGSSRSSSSGGGGSGGGGEVQLVESGGGLVQPGGSLRLSCAASGFTFTSTGISWVRQAPGKGLEWVGRIYPTNGSTNYADSVKGRFTISADTSKNTAYLQMNSLRAEDTAVYYCARTYGIYDLYVDYTEYVMDYWGQGTLVTVSSGGSSRSSSSGGGGSGGGGDIQMTQSPSSLSASGGSGQITVTCRASGFYPWNITLSWRQDGVSLSHDTQQWGDVLPDGQGTYQTWVATRISQGEEQRFTCYMEHSGQHSTHPVPSGKGSHHHHHH
